PubChem BioAssay AID1671195, Yale University | 2021

Purpose: 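Regulators of LDL receptor activity judged by labelled LDL uptake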 (primary screen)
System: human Huh7 hepatoma cells
Reagents: siRNA pool against human genes, 18 nM
Timing: about 2 to 2.5 days of knockdown, then 8 h LDL uptake
Conditions: DiI-labelled LDL at 30 µg/ml for 8 h, in lipoprotein-deficient serum medium
Measurement: 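Per-cell DiI-LDL intensity by automated imaging; well means scaled to the plate median and given as a robust z-score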
Scale: robust z-score: higher = more LDL uptake after knockdown
Call rule: 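a gene counts as active if at least two replicate z-scores exceed ±2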
This is a random part of about 22,000 reagents. About 1,510 of them (6.9%) count as active. 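Active includes knockdowns raising or lowering LDL uptake; positive z-scores mean more uptake, negative mean less.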 Entries without a mark were called inactive.

Gene	robust z-score, replicate 1	robust z-score, replicate 2	robust z-score, replicate 3
BCL2L14 (GeneID 79370)	-0.713	-1.26	-1.07
LOC401016 (retired record) (GeneID 401016)	0.851	1.11	1.46
ANO1 (GeneID 55107)	0.376	-0.451	0.843
HTATSF1 (GeneID 27336)	0.236	-1.22	-0.0937
FLJ45300 (retired record) (GeneID 399957)	-2.36 (active)	-2.29	-2.36
MTA1 (GeneID 9112)	-0.0491	-0.667	0.175
GSS (GeneID 2937)	0.353	1.31	0.96
KU-MEL-3 (GeneID 497048)	-0.18	0.222	0.135
PEX6 (GeneID 5190)	-0.886	-0.171	-0.275
MX1 (GeneID 4599)	1.84	-0.661	-0.0334
OR52E8 (GeneID 390079)	0.947	1.13	1.14
CCL24 (GeneID 6369)	-1.59	-1.63	-1.27
UGDH (GeneID 7358)	-0.896	-1.02	-0.412
NRXN2 (GeneID 9379)	-0.456	-0.486	-0.935
SCUBE1 (GeneID 80274)	0.259	0.395	-0.404
PSD (GeneID 5662)	-0.798	-0.757	-0.228
GK6P (GeneID 201989)	-0.782	-0.185	-0.375
HCFC2 (GeneID 29915)	0.122	-0.548	0.8
LINC00303 (GeneID 284573)	1.13	0.569	0.936
RPL31P50 (GeneID 341356)	2.68	1.15	1.22
LOC440951 (retired record) (GeneID 440951)	0.451	1.75	0.932
MRPL14 (GeneID 64928)	0.887	0.398	0.614
USP17L7 (GeneID 392197)	-0.33	0.21	0.684
HSP90AA1 (GeneID 3320)	2.37 (active)	3.22	2.85
UOX (GeneID 391051)	0.44	0.377	0.485
LOC401312 (GeneID 401312)	0.0245	-0.412	0.361
TTC21A (GeneID 199223)	0.41	0.627	0.203
COG6 (GeneID 57511)	4.48 (active)	4.38	2.33
ATP2C1 (GeneID 27032)	1.32	1.32	0.926
HELB (GeneID 92797)	-1.28	-0.377	-0.288
OR5AN1 (GeneID 390195)	0.126	-0.132	0.065
ASPHD2 (GeneID 57168)	-0.432	-0.267	0.127
GOLM2 (GeneID 113201)	-0.866	0.569	0.0263
KRT33A (GeneID 3883)	0.299	-1.31	-0.431
MNMIP1 (GeneID 79729)	3.17	1.43	1.66
MINK1 (GeneID 50488)	-1.75	-1.26	-1.48
TRAPPC13 (GeneID 80006)	-1.07	-1	-1.42
DCAF5 (GeneID 8816)	-1.06	-0.507	-1.21
POM121L8P (GeneID 29797)	-0.146	-0.412	-2.01
BRCC3 (GeneID 79184)	0.00327	-0.128	-0.65
ASB3 (GeneID 51130)	0.293	-0.672	0.108
RTKN (GeneID 6242)	-1.47	-1.23	-1.65
RPL31P51 (GeneID 100271475)	1.18	1.24	1.24
UMODL1-AS1 (GeneID 150147)	-1.04	-1.14	-1.17
USH2A (GeneID 7399)	-1.2	-0.7	-0.749
DCTD (GeneID 1635)	1.03 (active)	1.95	2.71
PAFAH1B2 (GeneID 5049)	1	1.64	0.953
ANKRD13A (GeneID 88455)	0.232	0.789	0.574
DPY19L1 (GeneID 23333)	-1.38	-2.02	6.22

Copied from the list.
For “robust z-score, replicate 1”, OR5AN1 (GeneID 390195) has 0.126
GSS (GeneID 2937), robust z-score, replicate 3 → 0.96
Under “robust z-score, replicate 2”, BRCC3 (GeneID 79184) is entered as -0.128
Entry of GOLM2 (GeneID 113201) in “robust z-score, replicate 2”: 0.569
For “robust z-score, replicate 2”, RTKN (GeneID 6242) has -1.23
Under “robust z-score, replicate 3”, RPL31P51 (GeneID 100271475) has 1.24

Additional reagents:
Gene	robust z-score, replicate 1	robust z-score, replicate 2	robust z-score, replicate 3
KATNAL2 (GeneID 83473)	-0.392	-0.192	-0.372
OR2M5 (GeneID 127059)	-0.97	-0.983	-1.71
LINC00692 (GeneID 285326)	-0.0857	-0.0932	-0.213
RNPC3 (GeneID 55599)	0.632	1.91	-0.185
CST7 (GeneID 8530)	0.0577	-0.191	-0.404
CDHR3 (GeneID 222256)	0.204	0.136	-0.184
DCUN1D3 (GeneID 123879)	0.89	0.15	-0.378
OR2W1 (GeneID 26692)	0.323	-1	-1.04
GTSF1L (GeneID 149699)	1.01	0.0915	-0.246
TMPRSS6 (GeneID 164656)	-0.622	0.235	-1
SUFU (GeneID 51684)	0.273	-0.568	-0.132
LINC03042 (GeneID 389649)	0.535	0.856	1.04
GNRH1 (GeneID 2796)	-0.595	-0.0359	-1.96
LOC388337 (retired record) (GeneID 388337)	2.39 (active)	2.27	2.2
RBM43 (GeneID 375287)	-0.651	-0.567	-0.552
TREM2 (GeneID 54209)	-0.774	-1.11	-0.701
ULK4 (GeneID 54986)	-0.173	-0.0109	-0.851
PMM1 (GeneID 5372)	0.662	-0.354	0.964
ELP2 (GeneID 55250)	-0.805	-1.05	-2.01
SLC36A2 (GeneID 153201)	0.00122	1.4	-0.0316
SPRR3 (GeneID 6707)	-0.664	-1.31	-0.863
NUDT19 (GeneID 390916)	-0.737	-0.631	-0.833
LINC02868 (GeneID 388667)	-0.887	-0.693	-0.608
TRARG1 (GeneID 286753)	-1.01	-1.03	-0.818
CSRNP2 (GeneID 81566)	0.436	0.741	1.58
LOC390466 (retired record) (GeneID 390466)	-0.0541	0.066	-0.502
MRPS18B (GeneID 28973)	-2.01	-0.245	-0.799
QRICH1 (GeneID 54870)	-0.0864	0.336	-0.227
SLC25A43 (GeneID 203427)	-0.502	-1.05	-0.681
FASTK (GeneID 10922)	3.06 (active)	2.8	2.35
IL9 (GeneID 3578)	-0.471	-0.215	-0.539
LOC285422 (GeneID 285422)	0.517	0.696	0.708
MRGPRX2 (GeneID 117194)	-0.463	0.0263	0.16
ESCO2 (GeneID 157570)	0.272	0.022	0.839
ACSM2A (GeneID 123876)	0.874	-0.0953	-0.642
CFP (GeneID 5199)	4.19 (active)	3.13	3.43
LINC02872 (GeneID 401535)	0.946	0.812	0.893
GSR (GeneID 2936)	0.753	1	1.08
